# Experimental data reported in patent US20220334101A1, “MODULATING EXTRACELLULAR MATRIX MOVEMENT” (Helmholtz Zentrum Muenchen - Deutsches Forschungszentrum …, priority 2019, published 2022).
# “Also recorded” adds a separate entry of the source. For at least one compound, name, drawing or mass did not settle the structure. Some entries repeat one wording, which the source may state once for all of them.
# How the values were obtained:
# skin-fascia explants = experiment: Scar-in-a-dish (SCAD) ex vivo skin-fascia explant assay, screening of Prestwick chemical library; assay type: cell-based, mouse; details: molecules of table 1 named as inhibitors of ECM movement
# Description: Post born Day 0 (P0) neonates of C57BL/6J wild type mouse were first sacrificed by decapitation. Then dorsal back skin was isolated to make 2 mm full thickness biopsies (0 2 mm, Stiefel) that included the epidermis, dermis and deep subcutaneous fascia layers. The whole skin tissue explant system is termed as scar-in-a-dish (SCAD) assay (Patent Application no. PLA17A13). The SCAD tissue was maintained in DMEM/F12 cell culture medium (Life Technologies) supplemented with 10% FBS (Life Technologies), 1% non-essential amino acid (Thermo Fisher), 1% Glutamax (Thermo Fisher), 1% penicillin and streptomycin (Thermo Fisher) in a 37° C. incubator supplied with […] and 5% CO2. Medium was changed every other day until day 5 when SCADs were collected and fixed for histology analysis. To be noticed, the excised skin was submerged […] in culture media, which confined the scar-prone fibroblasts to the explant and discouraged their adherence to the tissue culture plate.
# The PCL provides an additional advantage as all chemicals are of stable physicochemical properties, show a high range of chemical diversity, and are with known bioavailability and safety data in humans. All these information helps to reduce the probability of screening low-quality hits and save the costs of preliminary screening process.
# In order to accommodate to medium scale screening approach, the Inventors adapted the SCAD explant system into 96-well plate (Falcon) formats, with each well contained one biopsy. […] Plate and liquid handling were performed using a high-throughput screening platform system composed of a Sciclone G3 Liquid Handler from PerkinElmer (Waltham, Mass., USA). On Day 0 tissues were treated either with the respective compound (1 mM stock solution) dissolved in 100% dimethyl sulfoxide (DMSO, Carl Roth) or DMSO alone. 0.5 μl of compounds/DMSO were transferred with a 96-array head to 200 μl DMEM/F12 medium per well to keep the final DMSO concentrations at […]. Tissues were then incubated (37° C.; 5% CO2) for 72 h prior to a second round of compound treatment, which was performed by exchanging cell culture medium per well and transferring […] of compounds/DMSO into the fresh medium. After an incubation time of another 48 h (37° C.; 5% CO2) the tissues were harvested and fixed for histological processing and imaging.
# Briefly, the Inventors excised 2-mm full thickness skin biopsies that included epidermis, dermis, and deep subcutaneous fascia layers from mouse backs (see Methods). Skin-fascia explants were submerged fascia-side up in culture media, to confine scar-prone fibroblasts to the explant and discourage their adherence to the tissue culture plate. […]
# [1] = tested on: scars of splinted back-skin wounds; experiment: In vivo splinted wound model (scar formation); design: species or system mouse; details: 75 μl per wound of 250 μM intra-dermally, day 21, trichrome staining
# fascia fibroblasts [2] = experiment: 3D staining of fascia tissue for αSMA, Ki67 and caspase 3; assay type: cell-based, mouse; details: fascia tissue in Matrigel
# Description: (§1) In order to characterize the properties of fascia samples cultured in Matrigel, the Inventors fixed the whole gel (with fascia tissue embedded inside) and conducted 3D staining. Samples were immersed overnight in PBSGT (lx PBS implemented with 0.2% gelatin (Sigma), 0.5% Triton X-100 (Sigma) and 0.01% thimerosal (Sigma)) at room temperature and incubated with primary antibodies diluted in PBSGT for three days at room temperature. The tissues were then washed three times with PBSGT for at least 30 min each time and incubated with secondary antibodies diluted in PBSGT for one day. Finally, tissues were rinsed three times with PBSGT and stored in PBS at 4° C. until imaging. 3D whole mount imaging was conducted with a Leica SP8 multi-photon microscope.
# (§2) Primary and secondary antibodies applied in 3D staining: αSMA (ab21027, Abcam), Ki 67 (ab16667, Abcam), Cleaved Caspase-3 (9661S, Cell signalling), Gli1 (ab49314, Abcam), Donkey anti rabbit AF647 (A-31573, Life Technologies), Donkey anti goat AF647 (A-21447, Life Technologies).
# To better understand the molecular basis of reticulations that leads to scarring, the Inventors took a closer look at the molecular targets of the ‘hit’ chemicals. […] Thiostrepton reduces the binding activity of the transcriptional factor FoxM1; a positive regulator of Gli1 signaling (REF). Whereas Itraconazole inhibits Gli nuclear activity through stopping SMO moving to the membrane of primary cilia and thus inhibiting the pathway (James et al., 2010). […] The 3rd anti-scar drug Fluvastatin inhibits 3-Hydroxy-3-methylglutaryl-coenzyme A (HMG-CoA) reductase, a rate-limiting enzyme in cholesterol biogenesis that is required for hedgehog pathway activation (Huang P et al., 2016; Giovanni Luchetti et al., 2016). […] Thus, the Inventors conclude that anti-fibrosis chemicals converge on SHH pathway signaling to modulate fibroblast sprouting and reticulations, needed to mobilize fascia jelly into sites of injury.
# The hedgehog pathway was also reported to induce proliferation and to depress apoptosis.
# fascia fibroblasts [3] = experiment: Fascia invasion assay (ex vivo fascia 3D Matrigel culture); assay type: cell-based, mouse
# Gli1 = experiment: 3D staining of fascia tissue for Gli1 (hedgehog pathway); assay type: cell-based, mouse; details: fascia tissue in Matrigel
# Description: as §1, §2
# To better understand the molecular basis of reticulations that leads to scarring, the Inventors took a closer look at the molecular targets of the ‘hit’ chemicals. […] Thiostrepton reduces the binding activity of the transcriptional factor FoxM1; a positive regulator of Gli1 signaling (REF). […]
# [4] = tested on: fascia matrix mobilization into wounds; experiment: Fascia labelling study: fascia mobilization into excisional back-skin wounds in live mice; assay type: in vivo, mouse; details: 75 μl of 250 μM three times a week, wounds collected Day 7
# Description: For the fascia labelling study, 2 mg/ml NHS-fluorescein dye was subcutaneously injected into dorsal skin of wildtype mice at 4 days and 2 days prior to the surgery. After labelling, excisional wounds were made in mouse back-skin and treated with 75 μl saline diluted chemical solutions with a final concentration of 250 μM three times a week from the surgery day onwards. Scar samples were collected on D7.
# Having discovered sprouting and reticulations are altered by the compounds, the Inventors went on to check how these effect fascia mobilization in physiologic wounds in live animals. First, the Inventors labelled the subcutaneous fascia layer with a FITC-NHS ester dye in animals, then made full thickness excisional wounds on the backs of fascia-labelled mice, and followed wound healing under the presence of a […] injection regimen using the above 3 separate compounds. Skin wounds were collected at Day 7 after wounding to determine the extent of fascia mobilization and also at 21 days post-injury to determine final wound size and scar severity. In DMSO control groups, the fascia matrix jelly was mobilized into the wound from all sides of the wound, and wounds at 7 days were completely clogged with large patches of labelled matrix jelly.
smiles,measurement,setting,value
C[C@H]1C[C@H]2[C@@H]3CCC4=CC(=O)C=C[C@]4(C)[C@@]3(F)[C@@H](O)C[C@]2(C)[C@@]1(O)C(=O)CO [Betamethasone],phenotype as inhibitor of ECM movement,skin-fascia explants,anti-fibrotic phenotype
CCC(C)n1ncn(-c2ccc(N3CCN(c4ccc(OCC5COC(Cn6cncn6)(c6ccc(Cl)cc6Cl)O5)cc4)CC3)cc2)c1=O (centres unmarked) [Itraconazole],scar size / scarring of wounds,[1],reduced scaring of wounds
same,phenotype as inhibitor of ECM movement,skin-fascia explants,anti-fibrotic phenotype
same,cell death (caspase 3),fascia fibroblasts [2],increased
same,cell proliferation activity (Ki67),fascia fibroblasts [2],decreased
same,αSMA expression / activation into myofibroblasts,fascia fibroblasts [2],trapped in the nucleus rather than the cytoplasm
same,"inter-cell connectivity, sprouting and reticulations within the fascia",fascia fibroblasts [3],completely inhibited sprouting and reticulations
same,Gli1 protein expression,Gli1,no expression of Gli1
same,fascia (matrix jelly) mobilization into wounds,[4],reduced fascia jelly movements; also recorded: inhibited
Nc1cc(N2CCCCC2)nc(N)[n+]1[O-] [Minoxidil],phenotype as inhibitor of ECM movement,skin-fascia explants,anti-fibrotic phenotype
CCCCC1C(=O)N(c2ccccc2)N(c2ccccc2)C1=O [Phenylbutazone],phenotype as inhibitor of ECM movement,skin-fascia explants,anti-fibrotic phenotype
